# Laboratory results taken from PubChem BioAssay (NCATS).
# Inconclusive results, whose numbers are uncertain, are shown with a selection of clear calls. Potencies beside an inconclusive call are fits to weak or partial responses and may not hold up. The source made the active and inactive calls. Calls come from the whole dose curve; as a rule, active = well fitted cell-killing curve with a large enough effect; inconclusive = small, poorly fitted or top-dose-only effect, or effect the other way; inactive = no such curve, though single readings can be large or run the other way.
# Key:
# [1] = Quantitative High-Throughput drug screen in 47 multiple myeloma cell lines against the NCATS MIPE library collection: L363_DSMZ cell viability assay (AID 1918984); conditions: L363 myeloma viability, CellTiter-Glo ATP luminescence, 48 h; viability (% of control): at 45.8 µM (top of the series); note: nearly all actives have a fitted effect of over 40% in size
# Procedure, shortened: (§1)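 500 cells/well; MIPE 4.0 drugs pin-transferred; 48 h, 37C, 5% CO2. CellTiter-Glo, 5 min RT, luminescence. Controls: DMSO 100%, media 0%.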
# [2] = Quantitative High-Throughput drug screen in 47 multiple myeloma cell lines against the NCATS MIPE library collection: OCIMY7_PLB cell viability assay (AID 1918987); conditions: OCI-MY7 myeloma viability, CellTiter-Glo ATP, 48 h; viability (% of DMSO): at 45.8 µM (top of the series); note: nearly all actives have a fitted effect of over 65% in size
# Procedure, shortened: as §1
# [3] = Quantitative High-Throughput drug screen in 47 multiple myeloma cell lines against the NCATS MIPE library collection: U266_ATCC cell viability assay (AID 1919864); note: nearly all actives have a fitted effect of over 35% in size
# Procedure, shortened: as §1
# [4] = Quantitative High-Throughput drug screen in 47 multiple myeloma cell lines against the NCATS MIPE library collection: XG6_PLB cell viability assay (AID 1919865); conditions: XG6 myeloma viability, CellTiter-Glo ATP luminescence, 48 h; viability (% of control): at 45.8 µM (top of the series); note: nearly all actives have a fitted effect of over 40% in size
# Procedure, shortened: as §1
# [5] = Quantitative High-Throughput drug screen in 47 multiple myeloma cell lines against the NCATS MIPE library collection: XG1_PLB cell viability assay (AID 1919866); note: nearly all actives have a fitted effect of over 35% in size
# Procedure, shortened: as §1
# [6] = Quantitative High-Throughput drug screen in 47 multiple myeloma cell lines against the NCATS MIPE library collection: VP6_DJ cell viability assay (AID 1919867); conditions: ATP luminescence, 48 h; viability (% of DMSO): at 45.8 µM (top of the series); note: nearly all actives have a fitted effect of over 40% in size;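 for viability (% of DMSO): 100% = DMSO-only wells and 0% = wells with media alone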
# Procedure, shortened: as §1
# [7] = Quantitative High-Throughput drug screen in 47 multiple myeloma cell lines against the NCATS MIPE library collection: KMS34_JCRB cell viability assay (AID 1918985); conditions: KMS34 myeloma viability, CellTiter-Glo ATP luminescence, 48 h; viability, percent of control: at 45.8 µM (top of the series); note: nearly all actives have a fitted effect of over 40% in size
# Procedure, shortened: as §1
# [8] = Quantitative High-Throughput drug screen in 47 multiple myeloma cell lines against the NCATS MIPE library collection: OCIMY5_PLB cell viability assay (AID 1918988); conditions: OCI-MY5 myeloma viability, ATP luminescence, 48 h; viability, % of control: at 45.8 µM (top of the series); note: nearly all actives have a fitted effect of over 65% in size
# Procedure, shortened: as §1
# [9] = Quantitative High-Throughput drug screen in 47 multiple myeloma cell lines against the NCATS MIPE library collection: OPM1_PLB cell viability assay (AID 1918989); note: nearly all actives have a fitted effect of over 40% in size
# Procedure, shortened: as §1
# [10] = Quantitative High-Throughput drug screen in 47 multiple myeloma cell lines against the NCATS MIPE library collection: SKMM1_PLB cell viability assay (AID 1919863); conditions: SKMM1 myeloma viability, CellTiter-Glo ATP, 48 h; viability: active compounds read low; note: nearly all actives have a fitted effect of over 35% in size
# Procedure, shortened: as §1
# Potency is the fitted concentration of half-maximal effect.
Compound,Potency [1],Potency [2],Potency [3],Potency [4],Potency [5],Potency [6],Potency [7],Potency [8],Potency [9],Potency [10],viability [10]
CCC[C@H](N[C@@H](C)C(=O)N1[C@@H]2CCCC[C@H]2C[C@H]1C(=O)O)C(=O)OCC,"inconclusive: 7.43 µM [cytotoxic, partial curve]","inconclusive: 3.72 µM [cytotoxic, full curve, poor fit]","inconclusive: 37.2 µM [cytotoxic, single point]","inconclusive: 6.62 µM [cytotoxic, partial curve, poor fit]","inconclusive: 5.26 µM [cytotoxic, partial curve, poor fit]","inconclusive: 5.26 µM [cytotoxic, partial curve, poor fit]",–,–,–,–,–
NC(=O)c1ccc(N(C(N)=O)c2c(F)cccc2F)nc1-c1ccc(F)cc1F,–,"inconclusive: 14.8 µM [cytotoxic, partial curve, poor fit]",inactive,–,active: 2.96 µM,active: 16.6 µM,"inconclusive: 2.09 µM [cytotoxic, full curve, poor fit]","inconclusive: 26.4 µM [cytotoxic, partial curve, poor fit]","inconclusive: 1.32 µM [cytotoxic, full curve, poor fit]","inconclusive: 0.469 µM [cytotoxic, full curve, poor fit]",–
Cc1c(C)n(Cc2ccc(-c3ccccc3C(=O)O)cc2)c2ccc(C(=O)N[C@@H](C)c3ccc([N+](=O)[O-])cc3)cc12,–,"inconclusive: 37.2 µM [cytotoxic, partial curve, poor fit]","inconclusive: 16.6 µM [cytotoxic, partial curve, poor fit]","inconclusive: 1.05 µM [cytotoxic, full curve, poor fit]","inconclusive: 1.32 µM [cytotoxic, full curve, poor fit]","inconclusive: 1.32 µM [cytotoxic, full curve, poor fit]","inconclusive: 37.2 µM [cytotoxic, single point]","inconclusive: 37.2 µM [cytotoxic, single point]","inconclusive: 23.5 µM [cytotoxic, single point]",–,–
CCOC(=O)C=C[C@H](C[C@@H]1CCNC1=O)NC(=O)[C@@H](CC(=O)[C@@H](NC(=O)c1cc(C)on1)C(C)C)Cc1ccc(F)cc1,–,"inconclusive: 37.2 µM [rising, partial curve, poor fit]","inconclusive: 7.43 µM [rising, partial curve, poor fit]","inconclusive: 0.0021 µM [rising, full curve, poor fit]",–,"inconclusive: 0.833 µM [rising, full curve, poor fit]",inactive,–,"inconclusive: 0.0037 µM [rising, full curve, poor fit]",–,inactive: 138%
CCOC(=O)C1=C[C@]2(CC)CCCN3CCc4c(n1c1ccccc41)[C@@H]32,–,active: 9.35 µM,active: 16.6 µM,active: 7.43 µM,–,–,"inconclusive: 33.2 µM [cytotoxic, single point]",–,active: 8.33 µM,active: 26.4 µM,–
O=c1cc(-c2cccc3c2Sc2ccccc2S3)oc(N2CCOCC2)c1,–,"inconclusive: 14.8 µM [cytotoxic, partial curve, poor fit]","inconclusive: 18.7 µM [cytotoxic, partial curve, poor fit]",–,–,–,"inconclusive: 29.6 µM [cytotoxic, single point]",–,–,–,–
CC1(C)CCC[C@@]2(C)[C@@H]1CC[C@@]1(C)OC(=O)C[C@H]21,–,"inconclusive: 33.2 µM [cytotoxic, single point]","inconclusive: 18.7 µM [cytotoxic, partial curve, poor fit]",inactive,inactive,"inconclusive: 0.0372 µM [rising, full curve, poor fit]",inactive,–,–,–,–
c1coc(CNc2ncnc3nc[nH]c23)c1,–,"inconclusive: 9.35 µM [cytotoxic, partial curve, poor fit]",inactive,inactive,inactive,active: 18.7 µM,inconclusive: 0.001 µM,–,"inconclusive: 33.2 µM [cytotoxic, single point]",–,–
C[C@@H](CN1CC(=O)NC(=O)C1)N1CC(=O)NC(=O)C1,–,active: 2.35 µM,inactive,"inconclusive: 4.69 µM [cytotoxic, full curve]",active: 14.8 µM,"inconclusive: 23.5 µM [cytotoxic, single point]",inactive,–,"inconclusive: 0.118 µM [rising, full curve, poor fit]",–,inactive: 130%
Cc1ccc([C@@H]2O[C@H](CO)[C@@H](O)[C@H](O)[C@@H]2O)cc1Cc1ccc(-c2ccc(F)cc2)s1,–,"inconclusive: 33.2 µM [cytotoxic, partial curve, poor fit]","inconclusive: 18.7 µM [cytotoxic, partial curve, poor fit]","inconclusive: 23.5 µM [cytotoxic, single point]","inconclusive: 23.5 µM [cytotoxic, single point]","inconclusive: 26.4 µM [cytotoxic, single point]",active: 23.5 µM,"inconclusive: 37.2 µM [cytotoxic, single point]",–,–,inactive: 118%
CN(C)C(=O)[C@H](O)[C@H](Cc1ccccc1)NC(=O)c1cc2cc(Cl)ccc2[nH]1,–,active: 2.96 µM,"inconclusive: 16.6 µM [cytotoxic, partial curve, poor fit]","inconclusive: 5.26 µM [cytotoxic, full curve]","inconclusive: 3.32 µM [cytotoxic, full curve]",–,active: 0.935 µM,–,–,"inconclusive: 0.59 µM [rising, full curve, poor fit]",–
CC(C)NCC(O)c1ccc(NS(C)(=O)=O)cc1 (centres undefined),–,"inconclusive: 11.8 µM [cytotoxic, single point]",–,inactive,"inconclusive: 0.003 µM [rising, full curve, poor fit]","inconclusive: 0.0012 µM [rising, full curve, poor fit]","inconclusive: 11.8 µM [cytotoxic, single point]","inconclusive: 0.118 µM [rising, full curve, poor fit]",–,–,–
C[N+]1(C)[C@@H]2CC(OC(=O)[C@H](CO)c3ccccc3)C[C@H]1[C@H]1O[C@@H]12 (some centres undefined),–,inconclusive: 0.001 µM,"inconclusive: 1.32 µM [rising, partial curve, poor fit]",–,"inconclusive: 29.6 µM [cytotoxic, single point]","inconclusive: 33.2 µM [cytotoxic, partial curve, poor fit]",inactive,"inconclusive: 2.96 µM [rising, partial curve, poor fit]",inactive,–,–
O=c1cc(N2CCOCC2)oc2c(-c3cccc4c3sc3ccccc34)cccc12,–,active: 1.18 µM,inactive,active: 5.9 µM,–,–,"inconclusive: 16.6 µM [cytotoxic, partial curve, poor fit]",–,–,–,–
OCCN1CCN(CCCN2c3ccccc3Sc3ccc(C(F)(F)F)cc32)CC1,–,"inconclusive: 37.2 µM [cytotoxic, partial curve, poor fit]","inconclusive: 37.2 µM [cytotoxic, single point]",–,–,active: 16.6 µM,"inconclusive: 23.5 µM [cytotoxic, partial curve]",–,–,"inconclusive: 37.2 µM [cytotoxic, single point]",–
N#CC(=Cc1ccc(O)c(O)c1)C(=O)NCc1ccccc1,–,active: 5.9 µM,active: 26.4 µM,–,"inconclusive: 16.6 µM [cytotoxic, partial curve]",active: 18.7 µM,"inconclusive: 0.0012 µM [cytotoxic, full curve, poor fit]",–,–,"inconclusive: 0.0015 µM [cytotoxic, full curve, poor fit]",–
COc1cc2ncnc(-n3nc(-c4ccccn4)nc3N)c2cc1OC,–,active: 1.66 µM,"inconclusive: 18.7 µM [cytotoxic, partial curve, poor fit]",–,active: 5.9 µM,–,"inconclusive: 3.32 µM [cytotoxic, full curve, poor fit]",–,–,active: 0.662 µM,–
CCCn1c(=O)c2[nH]c(-c3cnn(Cc4cccc(C(F)(F)F)c4)c3)nc2n(CC)c1=O,–,"inconclusive: 0.0526 µM [rising, full curve, poor fit]",inactive,"inconclusive: 7.43 µM [cytotoxic, single point]",inactive,"inconclusive: 0.0332 µM [rising, full curve, poor fit]","inconclusive: 6.62 µM [cytotoxic, full curve, poor fit]",–,–,"inconclusive: 13.2 µM [cytotoxic, partial curve, poor fit]",–
CC(C)(C)[N+]([O-])=Cc1ccc(S(=O)(=O)O)cc1S(=O)(=O)O,–,"inconclusive: 5.9 µM [rising, partial curve, poor fit]","inconclusive: 5.9 µM [rising, full curve]",inactive,–,inactive,"inconclusive: 6.62 µM [rising, partial curve, poor fit]",–,–,–,–
COCCCOc1cc(C[C@@H](C[C@H](N)[C@@H](O)C[C@H](C(=O)NCC(C)(C)C(N)=O)C(C)C)C(C)C)ccc1OC,–,"inconclusive: 0.0372 µM [rising, full curve, poor fit]","inconclusive: 0.0019 µM [rising, full curve, poor fit]",inactive,–,"inconclusive: 10.5 µM [cytotoxic, full curve, poor fit]",inactive,–,–,"inconclusive: 0.187 µM [rising, full curve, poor fit]",–
c1ccc2c(-c3cnn4cc(-c5ccc(N6CCNCC6)cc5)cnc34)ccnc2c1,–,"inconclusive: 1.18 µM [cytotoxic, full curve, poor fit]",–,"inconclusive: 1.05 µM [cytotoxic, full curve, poor fit]","inconclusive: 1.05 µM [cytotoxic, full curve, poor fit]","inconclusive: 1.05 µM [cytotoxic, full curve, poor fit]","inconclusive: 33.2 µM [cytotoxic, partial curve, poor fit]","inconclusive: 6.62 µM [cytotoxic, full curve, poor fit]","inconclusive: 2.64 µM [cytotoxic, full curve, poor fit]",–,–
CC=CCC=CCCC(=O)[C@H]1O[C@@H]1C(N)=O,–,active: 14.8 µM,"inconclusive: 26.4 µM [cytotoxic, single point]",–,–,–,"inconclusive: 37.2 µM [cytotoxic, single point]",–,"inconclusive: 29.6 µM [cytotoxic, single point]",active: 18.7 µM,–
CCCCCCCCCCCCCCCC(=O)OC[C@@H](NC(=O)C(Cl)Cl)[C@H](O)c1ccc([N+](=O)[O-])cc1,–,"inconclusive: 0.059 µM [rising, full curve, poor fit]",inactive,–,"inconclusive: 0.0187 µM [rising, full curve, poor fit]",inactive,inactive,–,–,"inconclusive: 0.935 µM [rising, full curve, poor fit]",–
C[C@@]1(C(=O)Nc2ccc(F)nc2)CCCN1c1nc(Nc2cc(C3CC3)[nH]n2)c2cccn2n1,–,active: 0.0743 µM,"inconclusive: 23.5 µM [cytotoxic, partial curve, poor fit]",–,–,–,"inconclusive: 0.166 µM [cytotoxic, full curve]",–,–,–,–
C=C1C(=O)OC2C=C(C)CCC=C(C)CCC12 (centres undefined),–,–,–,"inconclusive: 23.5 µM [cytotoxic, partial curve, poor fit]",–,–,active: 14.8 µM,"inconclusive: 33.2 µM [cytotoxic, single point]",–,active: 29.6 µM,–

# Looked up above.
# COCCCOc1cc(C[C@@H](C[C@H](N)[C@@H](O)C[C@H](C(=O)NCC(C)(C)C(N)=O)C(C)C)C(C)C)ccc1OC – Potency [2]: inconclusive: 0.0372 µM [rising, full curve, poor fit]
# CC(C)NCC(O)c1ccc(NS(C)(=O)=O)cc1 (centres undefined) – Potency [5]: inconclusive: 0.003 µM [rising, full curve, poor fit]
